Results on 1 molecule are retold here after patent US20020123042A1.

Amino acid sequences for entries named in this document (tags omitted). A change or cut given only in a name is not applied to a line headed by its entry.
UniProt O43684: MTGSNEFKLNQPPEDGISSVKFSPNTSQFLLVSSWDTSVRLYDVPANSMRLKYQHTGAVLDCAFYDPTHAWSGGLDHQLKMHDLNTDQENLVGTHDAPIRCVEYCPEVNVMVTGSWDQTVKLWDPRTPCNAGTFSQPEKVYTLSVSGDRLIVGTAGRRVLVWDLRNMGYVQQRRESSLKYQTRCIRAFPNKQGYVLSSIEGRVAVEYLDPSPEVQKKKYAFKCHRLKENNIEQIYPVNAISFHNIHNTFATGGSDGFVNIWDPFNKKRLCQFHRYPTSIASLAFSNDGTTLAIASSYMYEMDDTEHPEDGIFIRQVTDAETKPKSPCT

The assay addresses epitope tagged FLAG-huBUB3 variant protein (plasmid p221-2) (human) (UniProt O43684). Put plainly: anti-FLAG co-immunoprecipitation of 35S-labeled in vitro translated proteins, 2 M NaCl washes.

These are yes or no findings as the source states them, for the method shown. In cells and extracts the contact can be indirect. Some results given as binding are weak or reduced against the parent protein; the word gives no strength.

B1: huBUB1 lysine-821 to alanine mutant (plasmid p403-1) (enzyme)
chain: MDTPENVLQMLEAHMQSYKGNDPLGEWERYIQWVEENFPENKEYLITLLEHLMKEFLDKKKYHNDPRFISYCLKFAEYNSDLHQFFEFLYNHGIGTLSSPLYIAWAGHLEAQGELQHASAVLQRGIQNQAEPREFLQQQYRLFQTRLTETHLPAQARTSEPLHNVQVLNQMITSKSNPGNNMACISKNQGSELSGVISSACDKESNMERRVITISKSEYSVHSSLASKVDVEQVVMYCKEKLIRGESEFSFEELRAQKYNQRRKHEQWVNEDRHYMKRKEANAFEEQLLKQKMDELHKKLHQVVETSHEDLPASQERSEVNPARMGPSVGSQQELRAPCLPVTYQQTPVNMEKNPREAPPVVPPLANAISAALVSPATSQSIAPPVPLKAQTVTDSMFAVASKDAGCVNKSTHEFKPQSGAEIKEGCETHKVANTSSFHTTPNTSLGMVQATPSKVQPSPTVHTKEALGFIMNMFQAPTLPDISDDKDEWQSLDQNEDAFEAQFQKNVRSSGAWGVNKIISSLSSAFHVFEDGNKENYGLPQPKNKPTGARTFGERSVSRLPSKPKEEVPHAEEFLDDSTVWGIRCNKTLAPSPKSPGDFTSAAQLASTPFHKLPVESVHILEDKENVVAKQCTQATLDSCEENMVVPSRDGKFSPIQEKSPKQALSSHMYSASLLRLSQPAAGGVLTCEAELGVEACRLTDTDAAIAEDPPDAIAGLQAEWMQMSSLGTVDAPNFIVGNPWDDKLIFKLLSGLSKPVSSYPNTFEWQCKLPAIKPKTEFQLGSKLVYVHHLLGEGAFAQVYEATQGDLNDAKNKQKFVLAVQKPANPWEFYIGTQLMERLKPSMQHMFMKFYSAHLFQNGSVLVGELYSYGTLLNAINLYKNTPEKVMPQGLVISFAMRMLYMIEQVHDCEIIHGDIKPDNFILGNGFLEQDDEDDLSAGLALIDLGQSIDMKLFPKGTIFTAKCETSGFQCVEMLSNKPWNYQIDYFGVAATVYCMLFGTYMKVKNEGGECKPEGLFRRLPHLDMWNEFFHVMLNIPDCHHLPSLDLLRQKLKKVFQQHYTNKIRALRNRLIVLLLECKRSRK
For B1, the binding entry is listed as “binds”.
